{"sequences": {"note": "Amino acid sequences for entries named in this document (tags omitted).", "UniProt Q8TD16": "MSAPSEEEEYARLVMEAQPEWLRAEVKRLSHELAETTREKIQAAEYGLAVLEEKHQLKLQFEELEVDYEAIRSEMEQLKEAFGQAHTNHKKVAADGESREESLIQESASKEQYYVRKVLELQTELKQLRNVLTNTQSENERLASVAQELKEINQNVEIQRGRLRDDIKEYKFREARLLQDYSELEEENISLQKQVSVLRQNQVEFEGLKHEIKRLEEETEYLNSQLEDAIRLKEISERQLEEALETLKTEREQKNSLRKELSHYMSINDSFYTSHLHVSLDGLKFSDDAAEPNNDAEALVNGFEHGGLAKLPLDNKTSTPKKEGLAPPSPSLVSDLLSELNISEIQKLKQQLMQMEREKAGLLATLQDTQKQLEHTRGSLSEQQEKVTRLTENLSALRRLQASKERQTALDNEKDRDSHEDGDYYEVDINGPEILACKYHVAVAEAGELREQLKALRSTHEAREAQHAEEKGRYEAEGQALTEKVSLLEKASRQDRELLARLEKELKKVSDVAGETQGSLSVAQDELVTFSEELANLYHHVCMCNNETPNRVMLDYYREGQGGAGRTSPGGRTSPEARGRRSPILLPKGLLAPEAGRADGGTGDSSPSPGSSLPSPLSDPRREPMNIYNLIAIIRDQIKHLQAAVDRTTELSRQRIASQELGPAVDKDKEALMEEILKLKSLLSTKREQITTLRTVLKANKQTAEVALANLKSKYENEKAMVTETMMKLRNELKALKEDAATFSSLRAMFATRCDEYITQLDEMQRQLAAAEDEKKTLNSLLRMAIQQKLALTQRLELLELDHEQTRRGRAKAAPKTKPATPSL", "UniProt P37276": "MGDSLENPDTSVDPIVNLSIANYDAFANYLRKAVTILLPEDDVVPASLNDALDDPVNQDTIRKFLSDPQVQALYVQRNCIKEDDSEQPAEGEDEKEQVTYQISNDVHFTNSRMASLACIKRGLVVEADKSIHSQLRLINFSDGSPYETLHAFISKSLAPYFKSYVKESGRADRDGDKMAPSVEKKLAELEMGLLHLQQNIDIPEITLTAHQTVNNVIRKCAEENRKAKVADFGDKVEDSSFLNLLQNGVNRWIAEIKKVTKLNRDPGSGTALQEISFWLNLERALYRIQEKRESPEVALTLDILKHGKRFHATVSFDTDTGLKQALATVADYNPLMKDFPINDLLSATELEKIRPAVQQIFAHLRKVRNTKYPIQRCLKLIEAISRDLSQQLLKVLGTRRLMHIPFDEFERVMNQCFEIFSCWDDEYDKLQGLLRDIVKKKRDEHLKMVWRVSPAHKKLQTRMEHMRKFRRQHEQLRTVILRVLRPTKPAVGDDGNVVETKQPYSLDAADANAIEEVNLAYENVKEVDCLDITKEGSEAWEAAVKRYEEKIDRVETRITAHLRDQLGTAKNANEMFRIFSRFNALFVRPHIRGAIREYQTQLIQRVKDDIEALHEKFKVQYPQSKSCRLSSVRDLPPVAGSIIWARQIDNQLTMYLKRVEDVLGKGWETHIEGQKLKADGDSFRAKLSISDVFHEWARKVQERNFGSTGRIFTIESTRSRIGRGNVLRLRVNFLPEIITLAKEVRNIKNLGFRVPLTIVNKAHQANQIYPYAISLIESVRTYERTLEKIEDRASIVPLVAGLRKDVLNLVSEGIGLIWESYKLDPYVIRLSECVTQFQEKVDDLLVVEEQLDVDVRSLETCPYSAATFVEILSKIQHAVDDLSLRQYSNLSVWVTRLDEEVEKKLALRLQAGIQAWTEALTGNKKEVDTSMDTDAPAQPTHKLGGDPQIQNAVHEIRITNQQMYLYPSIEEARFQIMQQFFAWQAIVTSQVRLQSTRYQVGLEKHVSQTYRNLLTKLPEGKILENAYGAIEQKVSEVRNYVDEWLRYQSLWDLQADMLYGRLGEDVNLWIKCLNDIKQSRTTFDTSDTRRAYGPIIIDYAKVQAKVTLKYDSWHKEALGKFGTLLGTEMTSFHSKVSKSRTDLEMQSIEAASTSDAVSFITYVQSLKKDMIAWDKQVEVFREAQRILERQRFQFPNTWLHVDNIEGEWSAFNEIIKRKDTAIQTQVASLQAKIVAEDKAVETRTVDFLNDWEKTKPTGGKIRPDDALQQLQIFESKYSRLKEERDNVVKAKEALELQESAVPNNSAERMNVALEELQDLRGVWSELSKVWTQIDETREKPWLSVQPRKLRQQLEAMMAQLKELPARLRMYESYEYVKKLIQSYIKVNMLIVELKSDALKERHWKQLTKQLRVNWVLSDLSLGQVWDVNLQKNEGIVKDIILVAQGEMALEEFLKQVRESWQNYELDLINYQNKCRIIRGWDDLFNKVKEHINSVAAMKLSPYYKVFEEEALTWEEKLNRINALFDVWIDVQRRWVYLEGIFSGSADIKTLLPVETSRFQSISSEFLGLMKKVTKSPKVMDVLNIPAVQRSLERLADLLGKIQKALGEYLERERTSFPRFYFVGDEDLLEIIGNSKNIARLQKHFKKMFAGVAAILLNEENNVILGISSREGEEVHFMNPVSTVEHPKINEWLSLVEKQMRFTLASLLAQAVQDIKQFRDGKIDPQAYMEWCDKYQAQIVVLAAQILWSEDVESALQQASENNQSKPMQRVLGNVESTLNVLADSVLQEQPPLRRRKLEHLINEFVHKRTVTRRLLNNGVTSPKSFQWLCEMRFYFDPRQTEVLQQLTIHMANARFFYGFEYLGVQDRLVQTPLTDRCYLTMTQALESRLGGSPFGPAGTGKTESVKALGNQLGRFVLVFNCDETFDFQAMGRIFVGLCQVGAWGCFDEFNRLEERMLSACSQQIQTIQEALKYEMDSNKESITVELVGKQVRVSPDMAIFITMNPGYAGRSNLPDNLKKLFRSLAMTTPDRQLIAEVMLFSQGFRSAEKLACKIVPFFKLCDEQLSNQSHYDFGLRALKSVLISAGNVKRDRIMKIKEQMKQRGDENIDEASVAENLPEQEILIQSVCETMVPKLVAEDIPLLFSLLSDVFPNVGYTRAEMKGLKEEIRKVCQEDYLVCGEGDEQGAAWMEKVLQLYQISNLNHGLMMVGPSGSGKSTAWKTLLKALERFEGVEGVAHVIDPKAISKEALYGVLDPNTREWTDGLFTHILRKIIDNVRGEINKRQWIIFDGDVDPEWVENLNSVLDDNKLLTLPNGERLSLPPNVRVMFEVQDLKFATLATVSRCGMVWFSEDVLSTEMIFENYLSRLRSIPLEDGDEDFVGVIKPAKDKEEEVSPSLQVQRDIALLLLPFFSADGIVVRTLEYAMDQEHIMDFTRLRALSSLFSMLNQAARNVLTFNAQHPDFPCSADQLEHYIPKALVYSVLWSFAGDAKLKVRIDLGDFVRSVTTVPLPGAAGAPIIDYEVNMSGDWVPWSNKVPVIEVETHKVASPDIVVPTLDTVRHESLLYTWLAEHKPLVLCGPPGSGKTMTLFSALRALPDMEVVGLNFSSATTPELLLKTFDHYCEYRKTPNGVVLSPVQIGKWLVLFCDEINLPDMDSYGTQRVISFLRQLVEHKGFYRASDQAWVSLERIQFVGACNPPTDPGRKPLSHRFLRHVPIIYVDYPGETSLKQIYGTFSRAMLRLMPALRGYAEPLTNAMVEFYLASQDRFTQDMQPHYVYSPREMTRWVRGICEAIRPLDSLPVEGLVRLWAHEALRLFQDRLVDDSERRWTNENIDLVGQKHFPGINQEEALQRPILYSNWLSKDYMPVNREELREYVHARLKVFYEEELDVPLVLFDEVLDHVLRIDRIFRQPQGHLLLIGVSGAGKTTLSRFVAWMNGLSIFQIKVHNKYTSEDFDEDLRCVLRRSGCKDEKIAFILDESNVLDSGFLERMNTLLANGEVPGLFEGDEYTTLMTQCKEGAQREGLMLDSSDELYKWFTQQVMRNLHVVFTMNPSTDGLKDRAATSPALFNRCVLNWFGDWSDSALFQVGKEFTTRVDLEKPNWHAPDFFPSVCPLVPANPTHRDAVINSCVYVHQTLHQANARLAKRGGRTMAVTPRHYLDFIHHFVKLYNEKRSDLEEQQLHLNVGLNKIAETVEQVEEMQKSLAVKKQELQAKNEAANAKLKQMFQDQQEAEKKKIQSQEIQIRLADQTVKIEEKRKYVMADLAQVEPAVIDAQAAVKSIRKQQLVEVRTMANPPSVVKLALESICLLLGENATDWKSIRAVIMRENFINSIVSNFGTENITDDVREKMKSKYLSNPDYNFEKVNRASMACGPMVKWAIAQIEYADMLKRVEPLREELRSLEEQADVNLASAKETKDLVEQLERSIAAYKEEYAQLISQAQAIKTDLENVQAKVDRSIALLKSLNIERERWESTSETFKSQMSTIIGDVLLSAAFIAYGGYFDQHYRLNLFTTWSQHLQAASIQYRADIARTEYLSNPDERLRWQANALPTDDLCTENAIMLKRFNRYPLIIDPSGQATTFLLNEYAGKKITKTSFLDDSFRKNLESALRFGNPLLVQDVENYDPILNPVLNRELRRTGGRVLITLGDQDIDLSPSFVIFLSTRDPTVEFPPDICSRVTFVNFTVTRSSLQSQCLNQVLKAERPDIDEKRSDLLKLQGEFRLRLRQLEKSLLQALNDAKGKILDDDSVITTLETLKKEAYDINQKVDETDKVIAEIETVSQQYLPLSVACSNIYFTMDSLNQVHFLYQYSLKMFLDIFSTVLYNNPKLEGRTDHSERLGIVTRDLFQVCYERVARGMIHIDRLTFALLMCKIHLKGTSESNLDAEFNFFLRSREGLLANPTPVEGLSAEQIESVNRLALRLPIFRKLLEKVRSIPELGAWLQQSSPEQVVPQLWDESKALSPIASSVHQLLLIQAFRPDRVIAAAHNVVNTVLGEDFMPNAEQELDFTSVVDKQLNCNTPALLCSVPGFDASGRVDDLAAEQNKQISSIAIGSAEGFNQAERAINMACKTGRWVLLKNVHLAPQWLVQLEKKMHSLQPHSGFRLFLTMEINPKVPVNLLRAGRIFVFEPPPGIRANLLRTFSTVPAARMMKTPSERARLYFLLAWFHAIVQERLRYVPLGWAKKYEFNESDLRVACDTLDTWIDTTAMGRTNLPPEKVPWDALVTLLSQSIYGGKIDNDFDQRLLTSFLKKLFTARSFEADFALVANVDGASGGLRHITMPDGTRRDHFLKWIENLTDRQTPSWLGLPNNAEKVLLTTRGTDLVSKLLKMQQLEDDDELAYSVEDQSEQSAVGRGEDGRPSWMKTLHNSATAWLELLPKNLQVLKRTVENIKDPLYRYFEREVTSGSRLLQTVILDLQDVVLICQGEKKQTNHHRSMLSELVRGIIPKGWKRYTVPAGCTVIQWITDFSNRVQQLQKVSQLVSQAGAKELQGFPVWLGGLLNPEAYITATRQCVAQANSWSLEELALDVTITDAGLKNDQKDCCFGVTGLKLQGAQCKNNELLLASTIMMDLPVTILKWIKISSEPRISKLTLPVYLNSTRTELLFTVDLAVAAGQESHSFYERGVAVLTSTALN", "UniProt Q24117": "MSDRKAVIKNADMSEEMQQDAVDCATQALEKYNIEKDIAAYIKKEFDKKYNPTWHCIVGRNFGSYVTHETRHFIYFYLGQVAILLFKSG", "UniProt P02828": "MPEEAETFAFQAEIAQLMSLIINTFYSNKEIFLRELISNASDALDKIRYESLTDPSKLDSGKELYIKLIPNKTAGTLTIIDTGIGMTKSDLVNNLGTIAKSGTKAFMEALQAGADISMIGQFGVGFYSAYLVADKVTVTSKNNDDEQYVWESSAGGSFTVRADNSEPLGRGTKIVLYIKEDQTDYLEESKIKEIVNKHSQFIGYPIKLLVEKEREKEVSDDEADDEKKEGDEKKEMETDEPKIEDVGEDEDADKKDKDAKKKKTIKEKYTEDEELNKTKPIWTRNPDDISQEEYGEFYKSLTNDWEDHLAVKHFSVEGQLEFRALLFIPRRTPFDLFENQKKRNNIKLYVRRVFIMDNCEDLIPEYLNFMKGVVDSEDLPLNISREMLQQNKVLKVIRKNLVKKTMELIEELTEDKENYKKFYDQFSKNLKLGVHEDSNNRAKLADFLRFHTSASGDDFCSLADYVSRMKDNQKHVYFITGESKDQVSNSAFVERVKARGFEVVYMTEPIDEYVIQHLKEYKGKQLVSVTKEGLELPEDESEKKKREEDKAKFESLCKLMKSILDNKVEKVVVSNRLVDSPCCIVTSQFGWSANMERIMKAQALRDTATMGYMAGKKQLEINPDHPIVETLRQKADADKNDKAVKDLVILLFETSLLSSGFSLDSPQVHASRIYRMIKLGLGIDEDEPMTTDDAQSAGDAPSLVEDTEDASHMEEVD"}, "source": "paper doi:10.1101/2021.07.01.450794", "test_in_all_cases": "proximity labelling", "key": {"Trbo-TTC1 (human)": {"target": "T1, Trbo-TTC1 (human) (UniProt Q99614)", "T1 sequence": "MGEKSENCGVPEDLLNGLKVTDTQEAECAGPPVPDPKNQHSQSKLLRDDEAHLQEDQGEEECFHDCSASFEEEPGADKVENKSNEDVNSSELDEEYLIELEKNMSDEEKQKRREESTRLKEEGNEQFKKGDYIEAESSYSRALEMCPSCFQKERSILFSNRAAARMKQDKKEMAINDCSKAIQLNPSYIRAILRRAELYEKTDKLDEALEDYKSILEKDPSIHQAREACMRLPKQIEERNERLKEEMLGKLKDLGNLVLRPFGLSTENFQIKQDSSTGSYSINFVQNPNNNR"}, "[1]": {"target": "T2, Egalitarian tagged at its C-terminal end with TurboID (Egl-Trbo) (Drosophila melanogaster) (UniProt Q9W1K4)", "T2 sequence": "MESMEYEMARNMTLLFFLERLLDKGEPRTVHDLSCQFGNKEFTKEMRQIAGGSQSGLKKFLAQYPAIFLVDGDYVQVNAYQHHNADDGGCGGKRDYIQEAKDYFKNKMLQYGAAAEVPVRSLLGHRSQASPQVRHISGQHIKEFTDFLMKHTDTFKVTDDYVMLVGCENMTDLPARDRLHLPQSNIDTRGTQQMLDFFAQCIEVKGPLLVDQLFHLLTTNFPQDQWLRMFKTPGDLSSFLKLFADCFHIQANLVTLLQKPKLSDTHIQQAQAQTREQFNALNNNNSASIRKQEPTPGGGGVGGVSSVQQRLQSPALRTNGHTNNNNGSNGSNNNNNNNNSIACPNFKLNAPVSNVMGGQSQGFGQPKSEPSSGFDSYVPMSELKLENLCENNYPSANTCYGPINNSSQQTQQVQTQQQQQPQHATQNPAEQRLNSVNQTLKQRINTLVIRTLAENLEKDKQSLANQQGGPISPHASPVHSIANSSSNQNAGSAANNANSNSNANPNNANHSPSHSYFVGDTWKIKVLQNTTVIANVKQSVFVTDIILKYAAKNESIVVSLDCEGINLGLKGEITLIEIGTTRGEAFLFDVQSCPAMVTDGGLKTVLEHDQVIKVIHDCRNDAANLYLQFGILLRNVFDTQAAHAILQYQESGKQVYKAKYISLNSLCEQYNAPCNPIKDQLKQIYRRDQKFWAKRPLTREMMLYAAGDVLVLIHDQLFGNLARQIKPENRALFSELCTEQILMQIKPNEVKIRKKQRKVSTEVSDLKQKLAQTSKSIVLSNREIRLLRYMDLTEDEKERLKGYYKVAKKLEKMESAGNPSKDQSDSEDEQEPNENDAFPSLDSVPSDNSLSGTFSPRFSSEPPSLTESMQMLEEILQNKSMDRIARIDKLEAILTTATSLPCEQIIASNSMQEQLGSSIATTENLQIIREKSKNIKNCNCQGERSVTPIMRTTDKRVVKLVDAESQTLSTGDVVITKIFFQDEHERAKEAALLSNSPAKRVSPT"}, "[2]": {"target": "T3, GFP-Me31b (Drosophila melanogaster) (UniProt P23128)", "T3 sequence": "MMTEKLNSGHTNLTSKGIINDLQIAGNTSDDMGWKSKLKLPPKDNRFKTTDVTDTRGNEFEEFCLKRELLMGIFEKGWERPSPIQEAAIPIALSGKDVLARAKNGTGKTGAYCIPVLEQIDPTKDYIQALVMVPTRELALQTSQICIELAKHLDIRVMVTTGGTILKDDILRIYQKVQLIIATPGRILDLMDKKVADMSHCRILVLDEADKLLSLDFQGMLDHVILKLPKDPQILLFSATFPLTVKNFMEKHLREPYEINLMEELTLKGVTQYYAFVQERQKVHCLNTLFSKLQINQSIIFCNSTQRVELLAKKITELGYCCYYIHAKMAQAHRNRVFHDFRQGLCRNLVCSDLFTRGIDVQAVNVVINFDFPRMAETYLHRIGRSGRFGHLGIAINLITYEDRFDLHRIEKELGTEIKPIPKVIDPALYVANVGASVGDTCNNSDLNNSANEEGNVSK"}, "[3]": {"target": "GFP-dTtc1 (Drosophila melanogaster) (UniProt Q9VEV3)"}, "[4]": {"target": "T2, Egalitarian tagged at its C-terminal end with TurboID (Egl-Trbo) (Drosophila melanogaster)", "remark": "listed apart in the source"}, "[5]": {"target": "GFP-dTtc1 (Drosophila melanogaster) (UniProt Q9VEV3)", "remark": "listed apart in the source"}}, "note": "Where two headings read alike, the source gives them in different places. Results are given in words; binding and its absence hold for the method and conditions named. In cells and extracts the contact can be indirect. Here binding means that the protein was enriched with, or labelled near, the bait; the list need not be complete. For some of these results: Sequences can lack the tags named with a protein."}
{"molecule": "BicD2 (from UniProt Q8TD16 1-824)", "values": [{"measurement": "binding", "setting": "Trbo-TTC1 (human)", "result": "binds"}]}
{"molecule": "Clathin heavy chain (Chc) (from UniProt P29742 1-1678)", "values": [{"measurement": "binding", "setting": "[1]", "result": "binds"}]}
{"molecule": "Dynein heavy chain (Dhc) (from UniProt P37276 1-4639)", "values": [{"measurement": "binding", "setting": "[1]", "result": "binds"}]}
{"molecule": "Dynein light chain (Dlc) (from UniProt Q24117 1-89)", "values": [{"measurement": "binding", "setting": "[1]", "result": "binds"}]}
{"molecule": "Egalitarian (Egl) (from UniProt Q9W1K4 1-1004)", "values": [{"measurement": "binding", "setting": "[2]", "result": "binds"}]}
{"molecule": "Hsp83 (from UniProt P02828 1-717)", "values": [{"measurement": "binding", "setting": "[3]", "result": "binds"}]}
{"molecule": "dTtc1 (CG14894) (from UniProt Q9VEV3)", "values": [{"measurement": "binding", "setting": "[1]", "result": "binds"}]}
{"molecule": "Me31b (protein, UniProt P23128 1-459) MMTEKLNSGHTNLTSKGIINDLQIAGNTSDDMGWKSKLKLPPKDNRFKTTDVTDTRGNEFEEFCLKRELLMGIFEKGWERPSPIQEAAIPIALSGKDVLARAKNGTGKTGAYCIPVLEQIDPTKDYIQALVMVPTRELALQTSQICIELAKHLDIRVMVTTGGTILKDDILRIYQKVQLIIATPGRILDLMDKKVADMSHCRILVLDEADKLLSLDFQGMLDHVILKLPKDPQILLFSATFPLTVKNFMEKHLREPYEINLMEELTLKGVTQYYAFVQERQKVHCLNTLFSKLQINQSIIFCNSTQRVELLAKKITELGYCCYYIHAKMAQAHRNRVFHDFRQGLCRNLVCSDLFTRGIDVQAVNVVINFDFPRMAETYLHRIGRSGRFGHLGIAINLITYEDRFDLHRIEKELGTEIKPIPKVIDPALYVANVGASVGDTCNNSDLNNSANEEGNVSK", "values": [{"measurement": "binding", "setting": "[4]", "result": "binds"}]}
{"molecule": "Vap33 (protein, UniProt Q9W4N8 1-269) MSKSLFDLPLTIEPEHELRFVGPFTRPVVTIMTLRNNSALPLVFKIKTTAPKRYCVRPNIGKIIPFRSTQVEICLQPFVYDQQEKNKHKFMVQSVLAPMDADLSDLNKLWKDLEPEQLMDAKLKCVFEMPTAEANAENTSGGGAVGGGTGAAGGGSAGANTSSASAEALESKPKLSSEDKFKPSNLLETSESLDLLSGEIKALRECNIELRRENLHLKDQITRFRSSPAVKQVNEPYAPVLAEKQIPVFYIAVAIAAAIVSLLLGKFFL", "values": [{"measurement": "binding", "setting": "[5]", "result": "binds"}, {"measurement": "binding", "setting": "[4]", "result": "binds"}]}
